Paper PMC11665689
No constants are given. Whether binding was seen depends on the method and setting. Binding seen in cells or lysates may run through a third protein. Some results given as binding are weak or reduced against the parent protein; the word gives no strength. Tags and fused reporters may be left off the sequences shown.

Amino acid sequences for entries named in this document (tags omitted).
UniProt Q99459: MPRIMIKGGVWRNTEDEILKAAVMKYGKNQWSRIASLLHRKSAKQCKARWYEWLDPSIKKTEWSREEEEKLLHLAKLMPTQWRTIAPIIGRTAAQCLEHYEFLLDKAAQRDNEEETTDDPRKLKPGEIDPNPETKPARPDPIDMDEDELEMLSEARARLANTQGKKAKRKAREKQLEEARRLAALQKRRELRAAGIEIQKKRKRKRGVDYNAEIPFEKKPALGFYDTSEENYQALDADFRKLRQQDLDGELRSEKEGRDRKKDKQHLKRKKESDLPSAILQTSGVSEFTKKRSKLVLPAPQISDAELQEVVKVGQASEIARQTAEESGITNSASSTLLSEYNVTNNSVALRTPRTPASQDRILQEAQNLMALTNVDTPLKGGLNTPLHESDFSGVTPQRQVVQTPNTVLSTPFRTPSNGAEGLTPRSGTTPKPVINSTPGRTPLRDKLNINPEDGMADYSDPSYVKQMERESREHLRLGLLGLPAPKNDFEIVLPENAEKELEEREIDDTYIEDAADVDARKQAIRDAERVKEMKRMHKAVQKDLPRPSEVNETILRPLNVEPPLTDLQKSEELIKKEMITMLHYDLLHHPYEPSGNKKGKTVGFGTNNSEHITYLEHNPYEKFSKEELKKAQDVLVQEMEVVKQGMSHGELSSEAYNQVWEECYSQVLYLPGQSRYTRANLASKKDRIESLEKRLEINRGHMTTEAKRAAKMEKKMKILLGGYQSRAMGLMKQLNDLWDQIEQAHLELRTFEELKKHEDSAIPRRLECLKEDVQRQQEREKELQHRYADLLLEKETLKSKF
UniProt O60828: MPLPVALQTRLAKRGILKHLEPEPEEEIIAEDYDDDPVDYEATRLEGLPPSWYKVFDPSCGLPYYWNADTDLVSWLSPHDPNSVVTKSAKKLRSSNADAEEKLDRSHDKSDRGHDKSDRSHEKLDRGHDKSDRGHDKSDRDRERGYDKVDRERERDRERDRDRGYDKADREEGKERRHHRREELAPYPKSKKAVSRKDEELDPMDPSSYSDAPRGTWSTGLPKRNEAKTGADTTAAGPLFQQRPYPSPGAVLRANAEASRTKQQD

T1: Flag-tagged CWF19L1 (CWF19-like cell cycle control factor 1) (human) (UniProt Q69YN2)
T1 sequence: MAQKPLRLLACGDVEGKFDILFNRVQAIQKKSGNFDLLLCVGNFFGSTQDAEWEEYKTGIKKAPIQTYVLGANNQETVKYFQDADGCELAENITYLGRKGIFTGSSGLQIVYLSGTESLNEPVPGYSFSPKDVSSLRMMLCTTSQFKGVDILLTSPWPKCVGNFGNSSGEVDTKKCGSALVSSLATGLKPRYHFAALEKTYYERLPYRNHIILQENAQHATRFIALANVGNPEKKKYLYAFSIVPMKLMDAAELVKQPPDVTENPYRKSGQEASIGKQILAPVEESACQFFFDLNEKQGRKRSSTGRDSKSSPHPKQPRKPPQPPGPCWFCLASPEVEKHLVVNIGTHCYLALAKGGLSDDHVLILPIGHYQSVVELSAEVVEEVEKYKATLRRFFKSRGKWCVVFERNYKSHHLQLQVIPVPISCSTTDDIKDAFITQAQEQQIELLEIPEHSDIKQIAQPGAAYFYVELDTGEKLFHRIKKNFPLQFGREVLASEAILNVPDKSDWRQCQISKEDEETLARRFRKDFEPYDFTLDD

B1: SNRNP40 (protein, UniProt Q96DI7 1-357)
chain: MIEQQKRKGPELPLVPVKRQRHELLLGAGSGPGAGQQQATPGALLQAGPPRCSSLQAPIMLLSGHEGEVYCCKFHPNGSTLASAGFDRLILLWNVYGDCDNYATLKGHSGAVMELHYNTDGSMLFSASTDKTVAVWDSETGERVKRLKGHTSFVNSCYPARRGPQLVCTGSDDGTVKLWDIRKKAAIQTFQNTYQVLAVTFNDTSDQIISGGIDNDIKVWDLRQNKLTYTMRGHADSVTGLSLSSEGSYLLSNAMDNTVRVWDVRPFAPKERCVKIFQGNVHNFEKNLLRCSWSPDGSKIAAGSADRFVYVWDTTSRRILYKLPGHAGSINEVAFHPDEPIIISASSDKRLYMGEIQ

Target: T1, Flag-tagged CWF19L1 (CWF19-like cell cycle control factor 1) (human)
Assay: co-IP; HEK293T cells transfected with Flag vector, Flag-tagged CWF19L1 or truncated mutants; NP-40 lysis buffer (25 mM Tris-HCl pH 7.4, 150 mM NaCl, 1% NP-40, 1 mM EDTA, 1 mM EGTA), sonication; anti-Flag M2 magnetic beads 3 h at 4 °C; elution with 3 x FLAG peptide; bound endogenous proteins detected by Western blot

Row | binding | Molecule
1 | binds | CDC5L (from UniProt Q99459 1-802)
2 | binds | polyglutamine binding protein 1 (PQBP1) (from UniProt O60828 1-265)
3 | binds | B1
